# Results are given in words; binding and its absence hold for the method and conditions named. Some binding calls cover weakened binding; strength is not graded here.
# B1: cytosolic domain of human PRRG4 (protein, not shown: small tags and cut ends)
# chain: CITKCNRLQHPCSSAVYERGRHTPSIIFRRPEEAALSPLPPSVEDAGLPSYEQAVALTRKHSVSPPPPYPGHTKGFRVFKKSMSLPSH
# Target: Nedd-4-like ubiquitin-protein ligase (Atropin-1-interacting protein 5) (human) (UniProt Q9H0M0)
# Experiment: WW domain array probed with purified cytosolic hPRRG4; listed as a hit
binder,measurement,value
B1,binding,binds
